Assay results from PMC4429112, “Characterization of a Highly pH Stable Chi-Class Glutathione S-Transferase from Synechocystis PCC 6803” (PLoS ONE, 2015).
No constants are given. Whether binding was seen depends on the method and setting. Some results given as binding are weak or reduced against the parent protein; the word gives no strength.

Target: Glutathione S-transferase sll0067 from Synechocystis PCC 6803 (Synechocystis PCC 6803) (UniProt Q55139)
Assay: SEC; Superdex 200 10/300 GL at pH 3, 25°C; protein incubated in CGH buffer; both purified

binding: binds
B1: Glutathione S-transferase sll0067 from Synechocystis PCC 6803 (enzyme, UniProt Q55139 1-184, looked up)
chain: MIKLYGAPQSRASIIQWYLEELSLPYEFVNVNLKEGEHRQAPYLAINPFGKVPAIADGNFHLWESGAILLYLAEKASTIPADAQARALVNQWILFANSTLANGLFIEAVREKEMPRLLQSLEKILGRSPFILGEKFSVVDVAVGSILAYVPIMLKLNFDDYPAVAAYVQGLVQRPAFQASIGAR
notes: gene of 0.55 kb amplified from genomic DNA with primers from the ATG to the stop codon; subunit of about 20 kDa; Cloned at BamHI and HindIII sites of pQE30 and purified on Ni-NTA; also called GST sll0067; recombinant sll0067; source: E. coli M15, purified (Ni-NTA agarose)
